# Assay results reported in publication PMC3139667, “A Screen against Leishmania Intracellular Amastigotes: Comparison to a Promastigote Screen and Identification of a Host Cell-Specific Hit” (PLoS Neglected Tropical Diseases, 2011).
# Like-named read-outs stand apart in the source and are kept apart here.
# How the values were obtained:
# [1] = tested on: L. donovani intracellular amastigotes; assay: Intracellular amastigote high-throughput image-based assay in infected THP-1 macrophages; format: cell-based; settings: Leishmania donovani, THP-1, 72 h, read-out: GI50 Intracellular amastigote
# Experimental: Sterile, black, 96-well, clear bottom plates (Greiner Bio-One) were seeded with exponentially growing THP-1 (5×10^5cells/ml). THP-1 were treated with 0.1 µM phorbol myristate acetate (PMA, Sigma) at 37°C for 48 h to achieve differentiation into adherent, non-dividing macrophages. Maturation of THP-1 cells towards monocyte-macrophage like cells is essential to avoid parasitized cells being overgrown by replicating cells. After activation by PMA, cells were washed and incubated with complete RPMI medium containing stationary phase L. donovani promastigotes at a macrophage/promastigote ratio of 1/15. After 4 h incubation at 37°C, non-internalized promastigotes were removed by 2–3 successive washes with RPMI containing 5% FBS and 5% horse serum. Test compounds (10 µM), positive control (2 µM amphotericin B) or negative control (1% DMSO) were then added to the cultures using a Biomek FXp liquid handler (Beckman Coulter). […] The intensity of parasite nucleus was too low to be detected with a 20X objective. […] Host cell nuclei and parasite kinetoplasts were counted and the ratio of parasites DNA to host nuclei was selected as the measurement output. Percentage inhibition of parasite growth was calculated as [1-(P/hcx-P/hc^+)/(P/hc^−-P/hc^+)]*100 where P/hcx, P/hc^+ and P/hc^− are parasite per host cell ratio for every well, positive control (amphotericin B) and negative control (DMSO) respectively. […]
# [2] = tested on: L. donovani axenic amastigotes; assay: Dose response study against axenic amastigotes (CellTiter-Glo); format: cell-based; settings: Leishmania donovani, read-out: GI50 Axenic amastigote
# Experimental: L. donovani axenic amastigotes (5×10^5 cells/ml in axenic amastigote media) were dispensed in sterile 96-well flat white opaque assay plates (Greiner Bio-One) using a WellMate multichannel dispenser (Matrix). […] 1% DMSO and amphotericin B (2 µM, 1% DMSO final concentration) were added as negative and positive controls respectively. Axenic amastigotes were incubated with the compounds for 72 h at 37°C with 5% CO2. Parasite viability was then measured using CellTiter-Glo as described above.
# THP-1 = assay: Host cell toxicity: THP-1 host nuclei counts in the image-based assay; settings: for GI50: Homo sapiens, THP-1, 72 h, read-out: GI50 THP-1
# Experimental: Sterile, black, 96-well, clear bottom plates (Greiner Bio-One) were seeded with exponentially growing THP-1 (5×10^5cells/ml). THP-1 were treated with 0.1 µM phorbol myristate acetate (PMA, Sigma) at 37°C for 48 h to achieve differentiation into adherent, non-dividing macrophages. Maturation of THP-1 cells towards monocyte-macrophage like cells is essential to avoid parasitized cells being overgrown by replicating cells. After activation by PMA, cells were washed and incubated with complete RPMI medium containing stationary phase L. donovani promastigotes at a macrophage/promastigote ratio of 1/15. After 4 h incubation at 37°C, non-internalized promastigotes were removed by 2–3 successive washes with RPMI containing 5% FBS and 5% horse serum. Test compounds (10 µM), positive control (2 µM amphotericin B) or negative control (1% DMSO) were then added to the cultures using a Biomek FXp liquid handler (Beckman Coulter). Cultures were incubated at 37°C for 72 h. Cells were then washed with phosphate-buffered saline (PBS), fixed for 30 minutes with 4% formaldehyde, rinsed again with PBS, stained for 2 h with 4′,6′-diamidino-2-phenylindole (DAPI 300 nM) and finally washed with PBS. […] Images were acquired with an INCell Analyzer 1000 automated epi-fluorescent microscope (G.E. Healthcare). The excitation and emission filters used to detect DAPI were 350/50 nm and 460/40 nm respectively. Eight image fields were acquired per well with a 20X objective. The proprietary INCell Developer Toolbox 1.7 software was used for image analysis. Segmentation parameters were set to identify host nuclei with a minimum area of 250 µm^2 and parasite kinetoplast with an average area of 1 µm^2. The intensity of parasite nucleus was too low to be detected with a 20X objective. A border, representing the boundary of the cell, was drawn around the nucleus (total area between 700 and 2000 µm^2). Only parasites found within this area were included in the calculation to eliminate extracellular parasites. False positive parasite detection in the nucleus was also excluded from the calculation. Host cell nuclei and parasite kinetoplasts were counted and the ratio of parasites DNA to host nuclei was selected as the measurement output. Percentage inhibition of parasite growth was calculated as [1-(P/hcx-P/hc^+)/(P/hc^−-P/hc^+)]*100 where P/hcx, P/hc^+ and P/hc^− are parasite per host cell ratio for every well, positive control (amphotericin B) and negative control (DMSO) respectively. Calculation of Z' factor and GI50 curve fitting were carried out as described above.
# [3] = tested on: L. donovani promastigotes; assay: Promastigote high-throughput ATP-bioluminescence assay; format: cell-based; settings: Leishmania donovani, read-out: GI50 Promastigote
# Experimental: L. donovani promastigotes from an exponentially growing culture were diluted to 10^6/ml in RPMI containing 10% FBS and 10% BHT. The diluted culture (99 µl/well) was dispensed in sterile 96-well flat white opaque assay plates (Greiner Bio-One) using a WellMate multichannel dispenser (Matrix). 1 µl of 1 mM test compound dissolved in DMSO was added to the plates for a final concentration of 10 µM compound and 1% DMSO. Amphotericin B was added as a positive control (final concentration 2 µM, 1% DMSO) and as a negative control, 1 µl DMSO was added (1% final concentration). Compounds and controls were added to the assay plate with the robotic dispenser Biomek FXp liquid handler (Beckman Coulter). Promastigotes were incubated with the compounds for 72 h at 27°C. […] After lysis, the resulting ATP-bioluminescence was measured using the Analyst HT plate reader (Molecular Devices). Percentage inhibition of parasite growth was calculated for each well as [1-(RLUx-RLU^+)/(RLU^--RLU^+)]*100 where RLUx, RLU^+ and RLU^- are respectively the Relative Light Units for each well, positive (amphotericin B) and negative (DMSO) controls. […] The Z' factor, calculated as 1-(3σc++3σc−)/(µc+−µc−) where σc+, σc−, µc+ and µc− are respectively the standard deviation and mean values of positive and negative controls, is reflective of the assay signal dynamic range and the data variation associated with signal measurement. […]
Structure (SMILES),GI50 [1],GI50 ([2]; 72 h),Selectivity (THP-1),GI50 (THP-1),GI50 ([3]; 72 h),"GI50 ([1]; L. donovani in THP-1, 72 h, parasites per host cell)","GI50 ([2]; 72 h at 37°C, CellTiter-Glo)",Selectivity (THP-1; ratio between parasite GI50 and THP-1 GI50),"GI50 ([3]; 72 h at 27°C, CellTiter-Glo)"
CCCCCCCCCCCCCCCC[n+]1ccccc1 [Cetylpyridinium chloride],0.41 µM,0.92 µM,22.34,9.16 µM,3.3 µM,–,–,–,–
Clc1ccc(CO/N=C(\Cn2ccnc2)c2ccc(Cl)cc2Cl)c(Cl)c1 [Oxiconazole],–,–,–,> 16.5 µM,–,6.6 µM,0.53 µM,2.51,2.65 µM
